In CN110903397A:
Results are given in words; binding and its absence hold for the method and conditions named. Some binding calls cover weakened binding; strength is not graded here.

The chains behind the UniProt entries cited, without tags or fusion partners. Residues count along the entry.
UniProt Q8NBP7, residues 31-692: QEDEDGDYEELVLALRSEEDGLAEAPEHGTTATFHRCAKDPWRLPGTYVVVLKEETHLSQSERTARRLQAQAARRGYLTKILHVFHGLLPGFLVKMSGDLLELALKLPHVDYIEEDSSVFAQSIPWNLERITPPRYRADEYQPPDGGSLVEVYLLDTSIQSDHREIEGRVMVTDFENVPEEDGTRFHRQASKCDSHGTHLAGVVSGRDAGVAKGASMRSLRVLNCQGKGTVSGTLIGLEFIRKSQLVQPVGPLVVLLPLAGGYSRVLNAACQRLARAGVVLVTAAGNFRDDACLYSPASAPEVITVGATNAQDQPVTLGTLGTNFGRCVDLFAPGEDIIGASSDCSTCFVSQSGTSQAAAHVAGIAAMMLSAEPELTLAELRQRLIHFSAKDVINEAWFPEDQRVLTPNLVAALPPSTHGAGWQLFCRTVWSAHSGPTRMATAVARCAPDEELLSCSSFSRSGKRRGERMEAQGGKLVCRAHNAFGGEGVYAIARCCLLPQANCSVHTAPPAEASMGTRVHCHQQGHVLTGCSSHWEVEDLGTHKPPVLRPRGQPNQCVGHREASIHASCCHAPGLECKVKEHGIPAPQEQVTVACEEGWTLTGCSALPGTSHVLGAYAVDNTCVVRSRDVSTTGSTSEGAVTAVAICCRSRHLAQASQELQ

Legend:
[1] = target: 重组人PCSK9蛋白 (人前蛋白转化酶枯草溶菌素9) (human) (UniProt Q8NBP7); assay: indirect phage ELISA, PCSK9 coated, HRP-anti-M13 detection
[2] = target: 重组人PCSK9蛋白 (人前蛋白转化酶枯草溶菌素9) (human) (UniProt Q8NBP7); assay: immunoblot, recombinant PCSK9 as antigen, HRP goat anti-human secondary antibody

binding [1]	binding [2]	Binder
binds	–	噬菌体展示的PCSK9特异性全人源scFv (目标噬菌体) (scFv, V domains shown) VH: QVQLVQSGAEVKKPGSSVKVSCQASGGTFSGYDIHWVRQATGQGLEWMGWMNPHSGNAGYAQKFQGRVTMTRDTSTATAYMELTSLTSDDTAVYYCARYAQLSLEWGQGTLVTVSS VL: EIVLTQSPVTLSVSPGERATLSCRASQSVIGNLAWYQQKPGQAPRLLIYGASARAAGIPDRFSGSGSGTDFTLTISSLKSEDFAVYYCQQYGSSPYTFGQGTKLEIK
–	binds	人PCSK9特异性全人源抗体3D2 (antibody, human IgG1, V domains shown) VH: QVQLVQSGAEVKKPGSSVKVSCQASGGTFSGYDIHWVRQATGQGLEWMGWMNPHSGNAGYAQKFQGRVTMTRDTSTATAYMELTSLTSDDTAVYYCARYAQLSLEWGQGTLVTVSS VL: EIVLTQSPVTLSVSPGERATLSCRASQSVIGNLAWYQQKPGQAPRLLIYGASARAAGIPDRFSGSGSGTDFTLTISSLKSEDFAVYYCQQYGSSPYTFGQGTKLEIK
